{"source": "PubChem BioAssay AID1347423", "about": "(Functional Genomics Laboratory (NCATS/FGL), 2020)", "note": "About 210 (0.4%) of roughly 52,000 sequences were called active.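 How the source made its calls: active means gene whose silencing raises cell survival under the drug, median off-target-corrected z-score across its silencing RNAs 2 or more; inactive means the rest.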 Some of the results follow.", "data": [{"assay": "Resistance to Poly (ADP-Ribose) Polymerase inhibitor: Gene Identification via Genome-wide siRNA Screen", "details": "mouse BRCA2 R2336H ES cells, olaparib, CellTiter-Glo viability; stronger effect = higher value", "method_in_brief": "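Genome-wide siRNA screen (3 siRNAs/gene, 20 nM) in mouse ES cells carrying hypomorphic BRCA2 R2336H; olaparib 500 nM added 48 h post-transfection, CellTiter-Glo viability 72 h later. Normalized to plate-median negative control; MAD z-scores, gene median, seed-adjusted.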", "values": [{"sequence": "GGAACUGAAGUUGAAAUAATT against Pkhd1l1", "z-score": "inactive: -1.57"}, {"sequence": "CCCUCUGGAUGGAUCUUCATT against Fbp2", "z-score": "inactive: 0.555"}, {"sequence": "GGAUGAUCACACUAGAGUUTT against BC017647", "z-score": "inactive: -1.38"}, {"sequence": "GGAAGUGAUAUCAUCGUAGTT against Dnajb11", "z-score": "inactive: -0.888"}, {"sequence": "GGAGACUAUUACCAUACUGTT against P4ha2", "z-score": "inactive: 0.46"}, {"sequence": "GCUCGAGAAGAGUUUGUUATT against 1700030J22Rik", "z-score": "inactive: -0.397"}, {"sequence": "CGGACUUCUCAAGACUUAUTT against AI451557", "z-score": "inactive: 0.136"}, {"sequence": "GUACAUGAGAGACCCUGAUTT against Lsm7", "z-score": "inactive: -2.03"}, {"sequence": "GGGCAAGUUUUCUACAUUUTT against Cntnap2", "z-score": "inactive: 0.942"}, {"sequence": "GGUGAUUGAACAGAGCUACTT against Slc2a4", "z-score": "inactive: -0.792"}, {"sequence": "GGGUCAACCCGAUAUUACCTT against Kcnh7", "z-score": "inactive: 0.826"}, {"sequence": "GCAAUUAGUAUCUAUUACCTT against Txnl5", "z-score": "inactive: -0.353"}, {"sequence": "GCUACCCUCGUUGUUGACATT against Hcrtr2", "z-score": "inactive: -1.36"}, {"sequence": "CCUGAUGUAGAAGCAUACUTT against 2310004K06Rik", "z-score": "inactive: 1.41"}, {"sequence": "GGAUGUAACUAGUAACUUUTT against Kcnn3", "z-score": "inactive: -1.07"}, {"sequence": "GGAAAUCGAGCAAAAGACATT against BC046331", "z-score": "inactive: 0.0524"}, {"sequence": "GCAUGAGUAUUCCAAGGAGTT against Arhgef7", "z-score": "inactive: -0.0633"}, {"sequence": "GGAGCUAAAGCUGCUGAUUTT against Calb3", "z-score": "inactive: 0.983"}, {"sequence": "CGGGCACUUAAGUUUCCAGTT against Nfix", "z-score": "inactive: -0.278"}, {"sequence": "GGUCAGAGGGCGAAUUAAATT against Akap4", "z-score": "inactive: -0.234"}, {"sequence": "GGAAAUGGUUCUAACAAAATT against Cpa5", "z-score": "inactive: 1.02"}, {"sequence": "GCCAGUAUGCAAAGACUCATT against LOC214403", "z-score": "inactive: -0.585"}, {"sequence": "GGGAUAUUGAGGAAGGUAUTT against Eda2r", "z-score": "inactive: 0.0137"}, {"sequence": "GGAAGAUGACCUCUACAUCTT against Aldh3a1", "z-score": "inactive: -0.611"}, {"sequence": "GCAUAAUUCUUUCUUCGCATT against Krtap14", "z-score": "inactive: 1.98"}, {"sequence": "GGUUUCAAAUAAAAAGGCATT against Lrpb7", "z-score": "inactive: 0.965"}, {"sequence": "GCCACGAAGGUACUAUGUATT against Tbce", "z-score": "inactive: -0.275"}, {"sequence": "GGUUUCGUUGUUCUUGUUGTT against 2900001O04Rik", "z-score": "inactive: 0.407"}, {"sequence": "GGUAGAAUACCUUCAGAUUTT against Ercc4", "z-score": "inactive: 0.198"}, {"sequence": "CCGGGUAGUCUUUUUGGUGTT against 9130019O22Rik", "z-score": "inactive: 0.976"}, {"sequence": "GCCGUUAGAAACAAAGUCGTT against Taf3", "z-score": "inactive: -0.374"}, {"sequence": "GGCGGAGUAGACUUCAUAUTT against Olfr593", "z-score": "inactive: -2.45"}, {"sequence": "CCCUCUGAAAAUGACCACUTT against 5430420C16Rik", "z-score": "inactive: 0.931"}, {"sequence": "GGUAUUGAAAAGGUGAAGUTT against Lpp", "z-score": "inactive: 0.172"}, {"sequence": "GGGACUUGAAGAUAAUCAATT against Dnajc10", "z-score": "inactive: -0.383"}, {"sequence": "GCGGAUGCAAAUCGAUGAATT against BC062951", "z-score": "inactive: 1.12"}, {"sequence": "CCUCUCCUUACAACUGAUGTT against Zfp286", "z-score": "inactive: -0.203"}, {"sequence": "GGAGAAAGGAAAACUCUUUTT against Pcdhga8", "z-score": "inactive: -1.19"}, {"sequence": "GCCUGUCUGCCACUUACAATT against Siat8c", "z-score": "inactive: 0.0785"}, {"sequence": "GGAAAAGGGUCGUGCCUGUTT against LOC433332", "z-score": "inactive: 0.298"}, {"sequence": "CCCGGUUGAGAAGAUAGACTT against Sod3", "z-score": "inactive: 0.529"}, {"sequence": "CCUCCAGGCUAUUUAUAGUTT against Unc119", "z-score": "inactive: 0.923"}, {"sequence": "GGAUGUGGAAGCAGUUUGUTT against Zfp101", "z-score": "inactive: -1.78"}, {"sequence": "CCUAAAUCUCACCUCCACATT against Gp9", "z-score": "inactive: 0.412"}, {"sequence": "GGGAAUGUGUUCUUUAUCATT against Commd9", "z-score": "inactive: -0.123"}, {"sequence": "GGCAUCUUAAAAUUGACUGTT against Olfr701", "z-score": "inactive: 0.126"}, {"sequence": "CGCAACCAUCAUCGUGCUCTT against Olfr282", "z-score": "inactive: -1.49"}, {"sequence": "GCUAACUGAUACUCCACCATT against 2810006K23Rik", "z-score": "inactive: -2.24"}, {"sequence": "GGCACUUGCUUUGGAUAAATT against Serpinb6a", "z-score": "inactive: -1.85"}, {"sequence": "GGAUUUCUCGGAAGUCGAGTT against Cd3e", "z-score": "inactive: -1.24"}, {"sequence": "GGAAGAAGUCAAACCAUAUTT against Ccl25", "z-score": "inactive: 1.32"}, {"sequence": "CCUCCAGGAUUAUCGUGAUTT against Dnajc6", "z-score": "inactive: -0.338"}, {"sequence": "GCAAAACGUAGCAGAAUUGTT against Magee1", "z-score": "inactive: 0.824"}, {"sequence": "GGCAAGAGGAAAAAGCGGATT against 4921503C21Rik", "z-score": "inactive: -1.49"}, {"sequence": "CCUGAACCACUUGUUAAAUTT against Rnf10", "z-score": "inactive: 0.959"}, {"sequence": "UCUUACACUUCGUGUUCCATT against Gpr6", "z-score": "inactive: -0.002"}, {"sequence": "GGAUUUGUGAAGUUUUUUGTT against Psmd5", "z-score": "inactive: 0.532"}, {"sequence": "CCUGAAUUACAGGGACCAGTT against Znrd1", "z-score": "inactive: 1.74"}, {"sequence": "CGUGAUAGUAGUGAAGUGATT against Usp22", "z-score": "inactive: -1.32"}, {"sequence": "GCCUAUCCCGAUGUUGUUGTT against Ap3m1", "z-score": "inactive: 0.464"}, {"sequence": "GACUCUUGUCCCAAGUGUUTT against Cno", "z-score": "inactive: -0.118"}, {"sequence": "CCGACUAAUGCCAUCUUCATT against Pcbp2", "z-score": "inactive: -1.16"}, {"sequence": "GGAAGAUCGAGAAUGUUCCTT against Ppih", "z-score": "inactive: 0.544"}, {"sequence": "GGCAGAAUAUGAGUUUGAUTT against Camk1d", "z-score": "inactive: 1.28"}, {"sequence": "GAUGCAGCCGUAGGAAUGGTT against Defcr-rs10", "z-score": "inactive: -0.855"}, {"sequence": "GGAAUUUGACCUUACUACUTT against AA960436", "z-score": "inactive: -0.0817"}, {"sequence": "CCUCAUAACAACGACUCCUTT against Blr1", "z-score": "inactive: -0.86"}]}]}
